Values from PubChem BioAssay AID720505 (Drosophila RNAi Screening Center, 2013).
The deposit covers about 20,000 reagents; this is an unselected part of those that have a named target and a result. In the full data, about 2,100 (10%) got an active call. 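Raw plate signals without normalisation; calls rest on control-based scores that were not deposited; replicate 2 separates called from uncalled poorly.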 The numbers tell different reagents against one gene apart. A plus sign joins genes that one reagent is predicted to hit. Not stated in the record: the amount of reagent, the time to read-out.

- Test: 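Fly regulators or components of the CRAC channel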 (primary screen)
- System: Drosophila S2R+ cells
- Reagent: long dsRNA against Drosophila genes
- Treatment: thapsigargin (2 µM) in calcium-free buffer to empty internal stores, then 2 mM calcium added back
- Read-out: 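Stores emptied by 2 µM thapsigargin without calcium, then 2 mM calcium re-added; fluo-4 fluorescence followed by FLIPR in 384-well plates, per-well averaged endpoint, raw; two screen passes, some wells retested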
- Scale: calcium signal and retest calcium signal: higher = more calcium entry after store depletion
- Rule for the call: 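About 1500 genes called as lowering calcium entry, by varying amounts, judged against per-plate control wells with STIM1 as positive and Rho1 as negative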
- Calls: active = called as lowering calcium entry; inactive = not called

Lip3: calcium signal, replicate 1 = 195; calcium signal, replicate 2 = 197; retest calcium signal, replicate 1 = 94.1; retest calcium signal, replicate 2 = 87.8; activity call = inactive
Lamtor4: calcium signal, replicate 1 = 86.2; calcium signal, replicate 2 = 91.7; activity call = inactive
CG2991: calcium signal, replicate 1 = 93.1; calcium signal, replicate 2 = 189; activity call = inactive
pcm: calcium signal, replicate 1 = 73.8; calcium signal, replicate 2 = 117; activity call = active
CG32829 #1: calcium signal, replicate 1 = 65.6; calcium signal, replicate 2 = 130; retest calcium signal, replicate 1 = 7732; retest calcium signal, replicate 2 = 170; activity call = inactive
CG32829 #2: calcium signal, replicate 1 = 82; calcium signal, replicate 2 = 115; activity call = inactive
CG14282: calcium signal, replicate 1 = 130; calcium signal, replicate 2 = 127; activity call = inactive
Argk1 #1: calcium signal, replicate 1 = 8191; calcium signal, replicate 2 = 206; activity call = inactive
Argk1 #2: calcium signal, replicate 1 = 75.9; calcium signal, replicate 2 = 61; activity call = inactive
Argk1 #3: calcium signal, replicate 1 = 116; calcium signal, replicate 2 = 94.9; activity call = inactive
Argk1 #4: calcium signal, replicate 1 = 147; calcium signal, replicate 2 = 86.3; activity call = inactive
Argk1 #5: calcium signal, replicate 1 = 85.2; calcium signal, replicate 2 = 132; activity call = inactive
CG17027: calcium signal, replicate 1 = 104; calcium signal, replicate 2 = 110; activity call = inactive

An excerpt from above, reduced to “calcium signal, replicate 2”.
Argk1 #3 = 94.9
Argk1 #4 = 86.3
Argk1 #5 = 132
CG17027 = 110

The list goes on:
Cmpk: calcium signal, replicate 1 = 105; calcium signal, replicate 2 = 174; activity call = inactive
CG15475: calcium signal, replicate 1 = 191; calcium signal, replicate 2 = 93.4; activity call = inactive
CR44003 + CG44002 #1: calcium signal, replicate 1 = 115; calcium signal, replicate 2 = 177; activity call = inactive
CR44003 + CG44002 #2: calcium signal, replicate 1 = 98.4; calcium signal, replicate 2 = 131; activity call = inactive
CG13538: calcium signal, replicate 1 = 174; calcium signal, replicate 2 = 240; activity call = inactive
Oat: calcium signal, replicate 1 = 102; calcium signal, replicate 2 = 107; activity call = inactive
CG13160: calcium signal, replicate 1 = 158; calcium signal, replicate 2 = 172; activity call = inactive
Cenp-C: calcium signal, replicate 1 = 125; calcium signal, replicate 2 = 143; activity call = inactive
CG11313: calcium signal, replicate 1 = 220; calcium signal, replicate 2 = 140; activity call = inactive
Nf-YC #1: calcium signal, replicate 1 = 191; calcium signal, replicate 2 = 135; activity call = inactive
Nf-YC #2: calcium signal, replicate 1 = 164; calcium signal, replicate 2 = 161; activity call = inactive
Cyp6v1: calcium signal, replicate 1 = 57.8; calcium signal, replicate 2 = 141; activity call = active
hiw #1: calcium signal, replicate 1 = 84; calcium signal, replicate 2 = 89.3; activity call = inactive
hiw #2: calcium signal, replicate 1 = 72.8; calcium signal, replicate 2 = 93.6; activity call = active
Tmtc3: calcium signal, replicate 1 = 167; calcium signal, replicate 2 = 90.2; activity call = inactive
